Results: PubChem BioAssay AID1508600 (Functional Genomics Laboratory (NCATS/FGL), 2020)
Out of some 53,000 sequences screened, about 3,700 (7%) were called active.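 Rule for the calls: active = gene knockdowns whose robust z-score for IL-1 alpha signal is at least 2 or at most -2, so actives lie on both sides; inactive = the rest.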 Some of the results follow.

assay: Components of the Cytosolic LPS Sensing Pathway: Gene Identification via Genome-wide siRNA Screen; settings: RAW264.7 macrophages, IL-1a HTRF, actives lie on both sides, screened at 100 nM (by protocol), cells primed 5 h with Pam3CSK4 first;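 note: robust z of the log signal after scaling to non-targeting control siRNA wells of the plate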
Outline: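 Mouse macrophage line RAW264.7 is transfected with siRNA (100 nM final), grown 48h, primed with TLR ligand Pam3CSK4 5 h and given intracellular LipidA 24 h. IL-1a in supernatant is read by HTRF and viability by luminescence.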

Sequence | z-score
GGAUUCAGCCCUGGUUUCATT against Wbp1 | inactive: 0.459
GCUUUGAUGACAAAAGUUCTT against Prdx6 | inactive: -0.109
GGGCUCGUUAAUCUUUUACTT against Nop10 | inactive: 0.753
GCUCAGCGACUGGCAAAGATT against Mrpl46 | inactive: 0.274
GCUAAGGUCUUACUCCUGGTT against Cdca4 | inactive: 1.13
GGGUUAGGGUAUAAAAGAUTT against Kcna7 | inactive: -0.373
GGAGAGAACGCAGAGAUACTT against 1700019N19Rik | inactive: 1.34
GGAAGAGGAGGAACAGAGATT against Ino80b | inactive: -1.45
GGAUGACAUGAAAAUGGAATT against Llph | inactive: -0.559
CCCAAGAAUACCAGUGUCGTT against Sdk2 | inactive: -1.03
GCAUAAUAAGCCAAUUCUGTT against Med17 | inactive: -0.355
GCUUCUUCUAUUCAUCAUUTT against Olfr933 | inactive: -0.174
CCAGGUAGAGCAAUUUCUATT against Hpdl | inactive: -0.267
GGCCAUAGCCUAGCAUAACTT against Wdr4 | inactive: -1.28
GCUAGUCGACAAUUAUUACTT against Pcdhga1 | inactive: 1.36
GGACAAACUAUGGUACCAGTT against Phldb1 | inactive: -1.55
GGCUGCUUUCUGAUGGUCATT against Marchf3 | inactive: 0.595
GGAACGUGAACUUUGUAUUTT against Nek2 | inactive: 0.337
GGCCUCGUACUCCAUAAGUTT against Lrwd1 | inactive: -0.209
CCAUAAUUAGGGAAUCCAGTT against Itga5 | inactive: -0.755
GGCACUGCCAUUAACAAAATT against Nrip1 | inactive: 0.0122
GCUCGUAGCUUUCAACAAATT against Igdcc4 | inactive: 0.228
GGGAGCUAAGUACAGCAAGTT against Abt1 | inactive: -0.274

Given as comma-separated lines: entries from further up.
Sequence,z-score
GCUUUGAUGACAAAAGUUCTT against Prdx6,inactive: -0.109
GGGCUCGUUAAUCUUUUACTT against Nop10,inactive: 0.753
GCUCAGCGACUGGCAAAGATT against Mrpl46,inactive: 0.274
GCUAAGGUCUUACUCCUGGTT against Cdca4,inactive: 1.13
GGGUUAGGGUAUAAAAGAUTT against Kcna7,inactive: -0.373
GGAGAGAACGCAGAGAUACTT against 1700019N19Rik,inactive: 1.34
GGAAGAGGAGGAACAGAGATT against Ino80b,inactive: -1.45
GGAUGACAUGAAAAUGGAATT against Llph,inactive: -0.559
CCCAAGAAUACCAGUGUCGTT against Sdk2,inactive: -1.03
GCAUAAUAAGCCAAUUCUGTT against Med17,inactive: -0.355
GCUUCUUCUAUUCAUCAUUTT against Olfr933,inactive: -0.174
CCAGGUAGAGCAAUUUCUATT against Hpdl,inactive: -0.267
GGCCAUAGCCUAGCAUAACTT against Wdr4,inactive: -1.28
GCUAGUCGACAAUUAUUACTT against Pcdhga1,inactive: 1.36
GGACAAACUAUGGUACCAGTT against Phldb1,inactive: -1.55

Later entries:

Sequence | z-score
GGUCUGUGGGAAACAUAAATT against Gria3 | inactive: -0.233
GGUUAUGAGGAACAAUUAGTT against Klk11 | inactive: -1.28
CCAUGAUUAAGGGUCUCUATT against Ldha | inactive: 0.111
GGAGAUUAUCAGGGAAGAGTT against Nectin3 | inactive: 0.884
GGAGUCUUCUGGAUAAACATT against Slc44a2 | inactive: 0.776
GCAUCAGAUAUCAGGGCAUTT against Pabpc2 | inactive: -0.255
GAGGAGCAAAUCCCGGUGATT against Prm3 | inactive: -1.41
GCAACGCACCGCUUACUAATT against Smarcc2 | inactive: 0.71
CCGACUACCUUUCUUCACCTT against Cdh23 | inactive: -1.24
CGGCCUGGGUCCCGUGGACTT against Hs3st6 | inactive: -1.18
GGCUACAGAAGCUACUAAATT against Akr1c6 | inactive: 1.23
CCGUGGAAACAGUCCUGAATT against Nudcd1 | inactive: 0.646
GGAUGAAGUGGCCAUAAAUTT against Olfr791 | inactive: -0.46
GGCACUUCGUAUAAAGACCTT against Hadhb | inactive: -1.53
CCUUUCCGACGAUAGGACCTT against Piga | inactive: -0.758
GGGAAGUGACCAUCAAGAATT against Slc8a3 | active: 2.56
GCGAACAAAAUGAGGACUUTT against Dusp23 | inactive: -0.321
CCGACUGAAUCAUAUAUCUTT against Rpp25 | inactive: -0.489
CGCACAAAGGAUUUUUGUATT against Epha7 | inactive: -0.064
GGAUCAACAUCAGAGUUCUTT against Zfp119b | inactive: -0.562
CCGGAUCCAGCCAAUCAAATT against Fkbpl | inactive: 1.03
GGCUUUUGAGAUUGCUAAATT against Mfap3l | inactive: -0.491
GGGACUGUAAUACCAUGAUTT against Rnase10 | inactive: 0.0343

Sequence | z-score
GGAACAAGUACAUACUUAUTT against Frs2 | active: 2.09
GGUAUUCCUCUAGAUCAGATT against Dysf | inactive: 0.627
GGAAAUACUCUCAUCAUCGTT against Olfr214 | inactive: -1.17
GGCUGUAUGCUCAGACUGATT against Olfr147 | inactive: -1.25
CCUGAUUCAUAUCACUAUUTT against Gpr82 | inactive: 1.17
CCCUAGAAACUACAGUAAUTT against Tmem62 | inactive: -1.2
GGAGCCUUGGAAGUGAUCUTT against Tmem71 | inactive: -0.515
GCGUGUUAGGAAAAACUCUTT against Pars2 | inactive: 1.36
AAUAGACUGGUACUCUCUGTT against Olfr476 | inactive: 1.08
CCUCUUAGCCGGGUAGAGATT against S100a16 | inactive: 0.41
GCUAUUGGUGCUUCAGUCCTT against Rtel1 | inactive: -0.458
GGAUAUUAUUCUCACACUATT against Ddx6 | inactive: -0.134
CGCAGAGGUUUUACUUUAATT against Mycbpap | inactive: 1.52
CCUACUCUGGUAAAACCUUTT against Immp1l | inactive: -0.365
CGGAGUCAAAUUGUAUAAATT against Tm4sf20 | inactive: 0.714
GCUCCUCCAGAUACAUGCUTT against Tbrg1 | inactive: -0.741
GGUGGUUUGCUCAUUAGAUTT against Cdk5r1 | inactive: 1.81
CCUGUCACGUCUUGUUUCCTT against Cpn2 | inactive: 0.132
GGGUUUCAUCCAGGAUCGATT against Bax | inactive: 0.714
GGUGUUUAAACAGCACUGCTT against Map3k7cl | inactive: -0.0862
GCCGCUUCUAUUUUCGUGGTT against Glra4 | inactive: 0.0536
GGACUCAGAACUUGUGUAUTT against Wnt11 | inactive: 0.513
